Test: general procedure: Fmoc solid-phase peptide synthesis; Rink amide resin
Conditions: whole synthesis, LCMS (Shimadzu 2010AD), reverse phase C8 column

pyrGlu-Ala-Lys-Ser-Gln-Gly-Gly-Ser-Asn (EAKSQGGSN; N-terminal pyroglutamate; printed: Glu-Ala-Lys-Ser-Gln-Gly-Gly-Ser-Asn)
purity (crude or final not stated): >95%

From patent publication US20190091494A1 (Clinical Stem Cells Pty Ltd, priority 2016, published 2019)
